Data source: PubChem BioAssay AID1259254 (NCATS, 2017)
Screen: 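Genome-wide screen for genes that prevent DNA re-replication in cancer cells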 (primary screen). Cells: human HCT116 colorectal cancer cells. Knock-down reagent: single siRNA against human genes. Duration: 3 days. Read-out: 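Imaged Hoechst DNA stain sorts each cell into a cycle phase by DNA amount; per plate, G2 fraction set to 0% for non-targeting and 100% for GMNN siRNA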. Reading the numbers: G2 robust z-score and G2 cells, % of GMNN control: higher = more G2 cells, more excess DNA replication; raw share of cells in G2: higher = larger share of cells with G2 DNA content. Call rule: 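An siRNA counts as active if its G2 robust z-score lies at least 5 MADs above the screen median; here such calls match roughly 38% of GMNN control or more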.
Shown is a random part of about 59,000 deposited reagents. Over the whole deposit, about 1,550 (2.6%) are marked active. 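G2 share is only a proxy for re-replication; each gene was hit by three separate siRNAs, and active genes were retested.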 The raw values are shown without normalisation. Entries without a mark were called inactive. Reagents against one gene are numbered here. Not given: the amount of reagent.

gene | reagent | G2 robust z-score | G2 cells, % of GMNN control | raw share of cells in G2 (%)
NAPRT | 1 | 0.95 | 9.65 | 6.03
NAPRT | 2 | 3.73 | 29.2 | 12.2
NAPRT | 3 | 0.0458 | 3.29 | 5.48
FGF6 | 1 | 1.18 | 11.3 | 7.94
FGF6 | 2 | -0.82 | -2.8 | 3.99
FGF6 | 3 | -0.253 | 1.19 | 4.52
RXFP2 | 1 | 0.281 | 4.94 | 7.61
RXFP2 | 2 | 0.0192 | 3.1 | 5.6
RXFP2 | 3 | -0.982 | -3.94 | 2.06
ATRAID | 1 | 0.324 | 5.24 | 5.48
ATRAID | 2 | 1.23 | 11.6 | 9.16
ATRAID | 3 | 0.945 | 9.62 | 6.37
RRM2 | 1 | -0.801 | -2.67 | 3.26
RRM2 | 2 | 1.65 | 14.6 | 10.2
RRM2 | 3 | 5.82 (active) | 43.9 | 20.1
RRM2 | 4 | 0.041 | 3.26 | 5.1
RRM2 | 5 | 0.535 | 6.73 | 6.2
RRM2 | 6 | -0.648 | -1.59 | 3.55
ACSL3 | 1 | 2 | 17.1 | 11.4
ACSL3 | 2 | 1.97 | 16.8 | 11.7
ACSL3 | 3 | -0.62 | -1.39 | 3.16
ST6GALNAC3 | 1 | -1.19 | -5.41 | 2.43
ST6GALNAC3 | 2 | -0.903 | -3.39 | 4.34
ST6GALNAC3 | 3 | 1.8 | 15.7 | 10.4
TNFRSF8 | 1 | -0.135 | 2.01 | 5.68
TNFRSF8 | 2 | 1.12 | 10.8 | 8.95
TNFRSF8 | 3 | -0.809 | -2.72 | 3.16
DNAAF11 | 1 | -0.526 | -0.733 | 4.14
DNAAF11 | 2 | -0.741 | -2.25 | 2.97
DNAAF11 | 3 | 1.09 | 10.6 | 7.02
APOL5 | 1 | 2.35 | 19.5 | 11.3
APOL5 | 2 | -0.376 | 0.324 | 4.91
APOL5 | 3 | 1.33 | 12.3 | 10.6
CMTR2 | 1 | -0.254 | 1.18 | 4.98
CMTR2 | 2 | 7.83 (active) | 58 | 28.2
CMTR2 | 3 | -0.264 | 1.11 | 3.49
OR13C4 | 1 | 1.41 | 12.9 | 9.04
OR13C4 | 2 | -0.428 | -0.046 | 3.09
OR13C4 | 3 | 0.387 | 5.69 | 4.64
TOP1MT | 1 | -0.0732 | 2.45 | 5.41
TOP1MT | 2 | -0.223 | 1.4 | 5.57
TOP1MT | 3 | -0.329 | 0.654 | 5.97

Quoted from above (9 entries):
gene | reagent | G2 robust z-score | G2 cells, % of GMNN control | raw share of cells in G2 (%)
ST6GALNAC3 | 1 | -1.19 | -5.41 | 2.43
ST6GALNAC3 | 2 | -0.903 | -3.39 | 4.34
ST6GALNAC3 | 3 | 1.8 | 15.7 | 10.4
TNFRSF8 | 1 | -0.135 | 2.01 | 5.68
TNFRSF8 | 2 | 1.12 | 10.8 | 8.95
TNFRSF8 | 3 | -0.809 | -2.72 | 3.16
DNAAF11 | 1 | -0.526 | -0.733 | 4.14
DNAAF11 | 2 | -0.741 | -2.25 | 2.97
DNAAF11 | 3 | 1.09 | 10.6 | 7.02

Further entries follow:
gene | reagent | G2 robust z-score | G2 cells, % of GMNN control | raw share of cells in G2 (%)
SIRT6 | 1 | -0.601 | -1.26 | 3.32
SIRT6 | 2 | -0.536 | -0.805 | 3.95
SIRT6 | 3 | 2.87 | 23.1 | 16.5
RBBP6 | 1 | 0.223 | 4.54 | 5.65
RBBP6 | 2 | 1.1 | 10.7 | 8.67
RBBP6 | 3 | -0.446 | -0.17 | 4.61
WDR82 | 1 | 0.36 | 5.5 | 6.73
WDR82 | 2 | 0.631 | 7.41 | 7.54
WDR82 | 3 | -0.822 | -2.82 | 1.61
CDR2L | 1 | -0.993 | -4.02 | 2.32
CDR2L | 2 | 0.508 | 6.54 | 7.02
CDR2L | 3 | -0.32 | 0.717 | 3.48
FOXA2 | 1 | -0.834 | -2.9 | 3.99
FOXA2 | 2 | -0.179 | 1.71 | 6.33
FOXA2 | 3 | -0.697 | -1.93 | 3.49
CAMK2G | 1 | -1.02 | -4.2 | 2.55
CAMK2G | 2 | 8.53 (active) | 63 | 26.4
CAMK2G | 3 | -0.796 | -2.63 | 4.52
GTPBP1 | 1 | -0.802 | -2.68 | 3.66
GTPBP1 | 2 | -0.746 | -2.28 | 4.34
GTPBP1 | 3 | -0.24 | 1.28 | 3.64
RRAGB | 1 | 1.4 | 12.8 | 11.5
RRAGB | 2 | 1.12 | 10.8 | 7.34
RRAGB | 3 | -1.22 | -5.59 | 3.27
SLC38A11 | 1 | -0.691 | -1.89 | 3.19
SLC38A11 | 2 | -0.868 | -3.14 | 1.94
SLC38A11 | 3 | -0.474 | -0.364 | 2.94
WFDC11 | 1 | -0.602 | -1.27 | 3.18
WFDC11 | 2 | 1.38 | 12.7 | 7.96
WFDC11 | 3 | 0.668 | 7.67 | 5.6
ANXA11 | 1 | 5.39 (active) | 40.9 | 18.6
ANXA11 | 2 | -0.663 | -1.7 | 4.47
ANXA11 | 3 | 0.369 | 5.56 | 6.06
TBC1D17 | 1 | 7.51 (active) | 55.8 | 27.6
TBC1D17 | 2 | 0.197 | 4.35 | 6.21
TBC1D17 | 3 | -0.98 | -3.93 | 1.3
KRTAP13-1 | 1 | 1.71 | 15 | 9.83
KRTAP13-1 | 2 | 2.31 | 19.2 | 9.19
KRTAP13-1 | 3 | -0.379 | 0.3 | 2.69
PDP2 | 1 | -0.00948 | 2.9 | 5.74
PDP2 | 2 | 0.273 | 4.89 | 5.78
PDP2 | 3 | -0.333 | 0.624 | 3.68
PTPRD | 1 | -1.12 | -4.9 | 3.2
PTPRD | 2 | -0.763 | -2.4 | 3.58
PTPRD | 3 | -0.761 | -2.39 | 2.78
